Results are given in words; binding and its absence hold for the method and conditions named. In cells and extracts the contact can be indirect. Some results given as binding are weak or reduced against the parent protein; the word gives no strength. For some assays here: Where a sequence is shown, tags or fusion partners need not be part of it.
Experiments:
FLAG-UBXN3A = FLAG-UBXN3A (UniProt Q9UNN5); assay: co-IP; HEK293T cells co-transfected with FLAG-UBXNs and HA-STING; whole-cell extracts in 150 mM NaCl, 50 mM Tris pH 7.5, 1 mM EDTA, 0.5% NP40, 10% glycerol; anti-FLAG magnetic beads 2 h at 4 °C; immunoblot anti-HA and anti-FLAG
FLAG-UBXN3B (human) = molecular target: T1, FLAG-UBXN3B (human) (UniProt Q96CS3); assay: as above
T1 sequence: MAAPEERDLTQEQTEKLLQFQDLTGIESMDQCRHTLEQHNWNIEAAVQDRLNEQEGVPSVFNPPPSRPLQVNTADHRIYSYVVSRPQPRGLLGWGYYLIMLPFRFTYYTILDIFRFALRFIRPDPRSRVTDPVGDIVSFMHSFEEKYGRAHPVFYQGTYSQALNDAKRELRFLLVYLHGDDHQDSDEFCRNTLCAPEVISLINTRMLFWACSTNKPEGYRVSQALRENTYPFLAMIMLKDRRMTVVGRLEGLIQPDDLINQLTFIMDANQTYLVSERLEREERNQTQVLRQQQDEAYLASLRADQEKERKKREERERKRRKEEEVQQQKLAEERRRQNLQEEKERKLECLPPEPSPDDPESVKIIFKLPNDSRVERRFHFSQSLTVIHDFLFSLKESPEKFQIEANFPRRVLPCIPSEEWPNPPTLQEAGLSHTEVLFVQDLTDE

Protein sequences, listed by entry. Tags and fused reporters are not part of them.
UniProt Q9UNN5: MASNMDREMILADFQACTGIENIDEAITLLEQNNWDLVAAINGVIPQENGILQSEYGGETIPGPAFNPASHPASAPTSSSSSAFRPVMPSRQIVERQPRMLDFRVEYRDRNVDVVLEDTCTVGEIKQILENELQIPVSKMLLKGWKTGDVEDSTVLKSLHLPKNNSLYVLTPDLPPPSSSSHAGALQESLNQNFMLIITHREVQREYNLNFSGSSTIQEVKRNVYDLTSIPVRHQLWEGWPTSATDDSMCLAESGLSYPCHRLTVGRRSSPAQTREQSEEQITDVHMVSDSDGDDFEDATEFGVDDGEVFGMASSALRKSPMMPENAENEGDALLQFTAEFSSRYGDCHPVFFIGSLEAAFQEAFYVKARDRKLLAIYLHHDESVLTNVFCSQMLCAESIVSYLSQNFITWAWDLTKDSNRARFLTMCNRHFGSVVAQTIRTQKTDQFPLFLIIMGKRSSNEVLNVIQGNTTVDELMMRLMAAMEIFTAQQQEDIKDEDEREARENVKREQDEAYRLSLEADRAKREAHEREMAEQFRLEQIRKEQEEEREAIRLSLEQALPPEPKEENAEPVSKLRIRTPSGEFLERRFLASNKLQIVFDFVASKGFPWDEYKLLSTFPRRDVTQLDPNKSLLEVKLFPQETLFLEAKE
UniProt Q86WV6: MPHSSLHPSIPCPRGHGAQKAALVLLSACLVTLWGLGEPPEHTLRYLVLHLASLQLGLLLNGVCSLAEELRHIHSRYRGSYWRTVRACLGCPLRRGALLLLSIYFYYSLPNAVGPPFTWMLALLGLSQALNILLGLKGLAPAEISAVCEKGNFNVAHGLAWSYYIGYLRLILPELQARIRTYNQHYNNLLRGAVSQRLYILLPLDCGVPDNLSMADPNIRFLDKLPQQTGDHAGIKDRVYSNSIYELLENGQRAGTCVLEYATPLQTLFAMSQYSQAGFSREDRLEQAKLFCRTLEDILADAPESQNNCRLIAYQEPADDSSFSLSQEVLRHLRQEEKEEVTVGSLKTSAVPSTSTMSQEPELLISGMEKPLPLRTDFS

Substance: HA-STING (from UniProt Q86WV6 1-379)
- binding (FLAG-UBXN3A): no binding
- binding (FLAG-UBXN3B (human)): binds

Reference: PMC5998066
